In article doi:10.1101/2025.03.24.645063:
These are yes or no findings as the source states them, for the method shown. Some binding calls cover weakened binding; strength is not graded here.

The chains behind the UniProt entries cited, without tags or fusion partners. Where a name states a change or a piece, a line headed by the entry shows the natural chain unless it says otherwise.
UniProt Q96SW2: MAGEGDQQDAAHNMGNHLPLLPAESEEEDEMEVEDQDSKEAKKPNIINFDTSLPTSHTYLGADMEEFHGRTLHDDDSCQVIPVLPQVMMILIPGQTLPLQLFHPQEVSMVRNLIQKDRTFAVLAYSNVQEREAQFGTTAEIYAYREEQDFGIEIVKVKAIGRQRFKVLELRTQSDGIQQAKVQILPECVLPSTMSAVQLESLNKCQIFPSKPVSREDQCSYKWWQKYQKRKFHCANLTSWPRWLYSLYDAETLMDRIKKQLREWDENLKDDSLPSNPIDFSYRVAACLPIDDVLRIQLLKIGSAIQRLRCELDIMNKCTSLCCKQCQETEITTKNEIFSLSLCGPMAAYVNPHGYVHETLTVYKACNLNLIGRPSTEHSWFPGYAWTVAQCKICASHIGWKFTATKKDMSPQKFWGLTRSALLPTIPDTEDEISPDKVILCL
UniProt P15104: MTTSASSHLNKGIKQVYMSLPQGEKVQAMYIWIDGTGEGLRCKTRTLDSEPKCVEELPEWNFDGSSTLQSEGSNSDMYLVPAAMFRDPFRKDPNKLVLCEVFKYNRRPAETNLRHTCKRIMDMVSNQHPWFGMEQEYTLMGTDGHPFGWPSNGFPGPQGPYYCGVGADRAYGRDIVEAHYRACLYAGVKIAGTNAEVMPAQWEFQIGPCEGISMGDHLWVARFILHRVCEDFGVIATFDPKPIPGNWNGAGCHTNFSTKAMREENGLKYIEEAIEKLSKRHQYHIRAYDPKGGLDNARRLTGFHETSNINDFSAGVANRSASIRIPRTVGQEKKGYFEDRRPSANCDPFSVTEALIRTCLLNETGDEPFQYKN

Biological target: CRBN/DDB1 complex (UniProt Q96SW2)
Test: FRET or BRET; TR-FRET association: 50 nM CoraFluor-1-labeled TBD or CRBN/DDB1, or 25 nM CoraFluor-1-labeled CRBNmidi; GFP protein titrated (1:2, 9-point, cmax 1 μM); 25 mM HEPES, 150 mM NaCl, 0.5 mg/mL BSA, 0.005% TWEEN 20, pH 7.5; background wells with 100 μM 5-NH2-lenalidomide; one-site specific binding fit; both purified

binding: binds
Substance: GFP-GLUL-cN (GFP-GLUL treated with PCMT1) (from UniProt P15104 1-373)
